Source: paper PMC9436914
No constants are given. Whether binding was seen depends on the method and setting. Binding seen in cells or lysates may run through a third protein. Some entries that bind do so weakly or less than the wild type.

Amino acid sequences for entries named in this document (tags omitted).
UniProt P49841: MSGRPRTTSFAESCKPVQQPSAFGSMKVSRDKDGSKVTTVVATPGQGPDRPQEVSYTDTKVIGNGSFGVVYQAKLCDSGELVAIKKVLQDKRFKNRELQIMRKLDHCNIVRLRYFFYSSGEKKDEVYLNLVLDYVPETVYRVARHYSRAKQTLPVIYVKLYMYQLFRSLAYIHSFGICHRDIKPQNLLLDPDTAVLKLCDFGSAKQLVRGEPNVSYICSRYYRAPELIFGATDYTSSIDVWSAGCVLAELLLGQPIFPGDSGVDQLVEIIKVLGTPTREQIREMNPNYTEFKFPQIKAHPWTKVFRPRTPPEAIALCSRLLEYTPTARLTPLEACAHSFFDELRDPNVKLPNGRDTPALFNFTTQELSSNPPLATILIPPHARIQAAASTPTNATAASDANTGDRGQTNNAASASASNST
UniProt P38936: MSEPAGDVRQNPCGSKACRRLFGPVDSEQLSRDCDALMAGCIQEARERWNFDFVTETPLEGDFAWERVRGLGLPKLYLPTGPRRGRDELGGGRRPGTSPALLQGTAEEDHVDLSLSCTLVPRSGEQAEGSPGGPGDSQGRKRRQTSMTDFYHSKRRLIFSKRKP
UniProt P35222: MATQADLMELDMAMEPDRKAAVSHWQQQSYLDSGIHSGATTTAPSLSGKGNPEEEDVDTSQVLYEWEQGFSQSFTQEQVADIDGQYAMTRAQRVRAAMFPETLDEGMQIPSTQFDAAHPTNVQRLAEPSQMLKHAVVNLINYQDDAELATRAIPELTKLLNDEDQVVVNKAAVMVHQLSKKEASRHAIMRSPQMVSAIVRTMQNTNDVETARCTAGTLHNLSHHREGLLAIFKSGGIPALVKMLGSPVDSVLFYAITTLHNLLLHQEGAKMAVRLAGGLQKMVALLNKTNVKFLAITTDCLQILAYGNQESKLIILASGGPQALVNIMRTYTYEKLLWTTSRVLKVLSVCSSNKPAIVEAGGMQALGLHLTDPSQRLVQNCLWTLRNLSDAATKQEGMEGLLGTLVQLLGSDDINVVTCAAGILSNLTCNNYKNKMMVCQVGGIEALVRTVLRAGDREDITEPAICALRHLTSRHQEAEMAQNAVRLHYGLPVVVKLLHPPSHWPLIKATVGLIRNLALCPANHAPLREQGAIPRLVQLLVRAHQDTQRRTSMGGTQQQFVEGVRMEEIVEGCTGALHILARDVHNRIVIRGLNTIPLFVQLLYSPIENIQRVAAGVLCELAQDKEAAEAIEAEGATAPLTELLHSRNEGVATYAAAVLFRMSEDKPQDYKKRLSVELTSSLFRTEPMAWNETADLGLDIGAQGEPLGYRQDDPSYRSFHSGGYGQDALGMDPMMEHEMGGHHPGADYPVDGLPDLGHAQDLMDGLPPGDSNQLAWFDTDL

Legend:
[1] = target: T1, DNASE1L3 (deoxyribonuclease γ), overexpressed in Hep3B cells (human) (UniProt Q13609); test: co-IP; exogenous Co-IP in Hep3B cells with overexpressed DNASE1L3; 5 mg protein, 4 μg specific antibody or IgG, overnight at 4°C; Western blotting
T1 sequence: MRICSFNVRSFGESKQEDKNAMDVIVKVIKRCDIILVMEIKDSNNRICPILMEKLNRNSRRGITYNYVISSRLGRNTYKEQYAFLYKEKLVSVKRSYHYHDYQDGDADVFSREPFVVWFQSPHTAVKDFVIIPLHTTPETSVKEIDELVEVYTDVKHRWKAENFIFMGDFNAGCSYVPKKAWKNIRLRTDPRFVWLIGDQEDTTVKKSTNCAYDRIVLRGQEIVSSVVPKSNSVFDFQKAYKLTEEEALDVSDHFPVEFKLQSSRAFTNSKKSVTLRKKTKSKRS

[2] = target: T2, DNASE1L3, endogenous in Hep3B cells (human (endogenous in Hep3B)) (UniProt Q13609); test: co-IP; endogenous Co-IP in Hep3B cells; 5 mg protein, 4 μg specific antibody or IgG, overnight at 4°C; Western blotting
T2 sequence: T1 sequence

Substance | binding [1] | binding [2]
GSK-3β, in Hep3B cells (from UniProt P49841 1-420) (enzyme) | binds | 
P21, in Hep3B cells (from UniProt P38936 1-164) | binds | 
β-catenin, in Hep3B cells (from UniProt P35222 1-781) | binds | binds
